Assay results reported in US20170129959A1.
These are yes or no findings as the source states them, for the method shown. Some results given as binding are weak or reduced against the parent protein; the word gives no strength.

Chains of the proteins cited; added tags and fusions are not shown. Lines headed by an entry give the natural chain unless they say otherwise; changes in a name come on top.
UniProt P16871: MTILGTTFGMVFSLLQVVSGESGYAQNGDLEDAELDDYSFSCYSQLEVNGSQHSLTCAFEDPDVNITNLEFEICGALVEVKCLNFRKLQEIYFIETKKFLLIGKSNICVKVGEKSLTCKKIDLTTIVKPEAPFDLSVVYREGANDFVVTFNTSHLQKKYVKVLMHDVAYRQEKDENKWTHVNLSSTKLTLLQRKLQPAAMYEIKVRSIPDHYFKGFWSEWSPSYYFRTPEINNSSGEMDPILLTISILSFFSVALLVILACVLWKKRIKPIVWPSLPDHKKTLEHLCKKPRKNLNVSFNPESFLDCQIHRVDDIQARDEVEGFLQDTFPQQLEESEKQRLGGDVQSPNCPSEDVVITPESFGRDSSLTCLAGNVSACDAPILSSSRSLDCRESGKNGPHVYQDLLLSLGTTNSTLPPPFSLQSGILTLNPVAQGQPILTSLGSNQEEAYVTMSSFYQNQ

B1: N13B2-h1 (humanized N13B2) (antibody, V domains shown)
VH: QVQLVESGGGLVKPGGSLRLSCAVSGFTLSDYYMAWVRQAPGKGLEWVATISASGLRTYYPDSVKGRFTISRDDAKNSLYLQMNSLRAEDTAVYYCARPMSAHYGFNYFDYWGQGTLVTVSS
VL: EIVMTQSPATLSVSPGERATLSCRTSEDIYNGLAWYQQKPGQAPRLLVYSANSLHIGIPARFSGSGSGTEYTLTISSLQSEDFAVYFCQQYYDYPLAFGGGTKVEIK
B2: N13B2-h2 (humanized N13B2) (antibody, V domains shown)
VH: QVQLVESGGGLVKPGGSLRLSCAVSGFTLSDYYMAWIRQAPGKGLEWVSTISASGLRTYYPDSVKGRFTISRDNAKNSLYLQMNSLRAEDTAVYYCARPMSAHYGFNYFDYWGQGTLVTVSS
VL: EIVMTQSPATLSVSPGERATLSCRTSEDIYNGLAWYQQKPGQAPRLLIYSANSLHIGIPARFSGSGSGTEFTLTISSLQSEDFAVYYCQQYYDYPLAFGGGTKVEIK

Biological target: Recombinant CD127 Fc Chimera (10975-H03H, Sino Biological) (human) (UniProt P16871)
Experiment: ELISA, coated human CD127Fc, revealed with an anti-human kappa antibody

Binder	binding
B1	binds
B2	binds
